Source: PubChem BioAssay AID248 (DTP/NCI, 2004)
The list does not hold the whole screen: it is rich in T/C values a quarter to a half above the control, in often repeated tests (any T/C) and in doses without a T/C. Other doses and runs of a compound stand elsewhere. T/C: endpoint of the treated group in % of that of the vehicle group. Some doses have a count of surviving animals in place of a T/C: the source files T/C as zero there, which appears to mark a toxic dose or a test without result, not a measured value. Some doses without a T/C left all or most animals alive at the check, yet need not have been tolerated: the source hardly ever lists a survival T/C far under the control, and the zero likely stands for such cases as well. Counts of survivors are from the toxicity check (mostly the fifth day) where no day follows; animals may have died later. Schedule codes are those of the source, taken here to give the interval after Q, in days (D) or hours (H), and the number of doses after X. Some schedule codes hold Z or #, which are not explained here. Some entries were tested several times; the values are given in rising order. Some molecules as drawn cover several salts, stereoisomers or complexes of the source; a dose is that of the sample tested. Brackets with × say how often a value occurs here. Where survival is the endpoint, this PubChem deposit counts one and a half times the control or more as active, and values a quarter to a half above the control carry no call in these data; other NCI protocols may use other cut-offs.

Tested on: L1210 leukemia ip in BDF1 mice, survival T/C
Assay: NCI In Vivo Anticancer Drug Screen. Data for tumor model L1210 Leukemia (intraperitoneal) in B6D2F1 (BDF1) mice
Conditions: T/C endpoint: mean survival time, higher T/C = longer survival
[1] = dose: 400.0 mg/kg/injection, schedule: Q01DX009 (ip), vehicle: saline
[2] = dose: 100.0 mg/kg/injection, schedule: Q04DX002 (ip), vehicle: Klucel (hydroxypropylcellulose) (HPC)
[3] = dose: 200.0 mg/kg/injection, schedule: Q04DX002 (ip), vehicle: Klucel (hydroxypropylcellulose) (HPC)
[4] = dose: 400.0 mg/kg/injection, schedule: Q04DX002 (ip), vehicle: Klucel (hydroxypropylcellulose) (HPC)
[5] = dose: 400.0 mg/kg/injection, schedule: Q01DX001 (ip), vehicle: saline

Cc1cc(NCCN(C(C)C)C(C)C)nc(/N=C(\N)Nc2ccc(Cl)c(C(F)(F)F)c2)n1
survivor count (dose: 37.5 mg/kg/injection, schedule: Q01DX009 (ip), vehicle: Klucel (hydroxypropylcellulose) (HPC)): 6 of 6 | survivor count (dose: 40.0 mg/kg/injection, schedule: Q01DX009 (ip), vehicle: Klucel (hydroxypropylcellulose) (HPC)): 2 of 6 | survivor count (dose: 75.0 mg/kg/injection, schedule: Q01DX009 (ip), vehicle: Klucel (hydroxypropylcellulose) (HPC)): 5 of 6 | survivor count (dose: 150.0 mg/kg/injection, schedule: Q01DX009 (ip), vehicle: Klucel (hydroxypropylcellulose) (HPC)): 0 of 6 | survivor count (dose: 300.0 mg/kg/injection, schedule: Q01DX009 (ip), vehicle: Klucel (hydroxypropylcellulose) (HPC)): 0 of 6

O=[N+]([O-])c1cccc2cccc([N+](=O)[O-])c12
survivor count [1]: 6 of 6

Clc1ccc(-c2nnc(-c3cccc4ccccc34)o2)cc1Cl
survivor count (dose: 200.0 mg/kg/injection, schedule: Q01DX009 (ip), vehicle: saline with Tween-80): 6 of 6

CC(=O)c1cc(C)ccc1O
survivor count (dose: 400.0 mg/kg/injection, schedule: Q04DX003 (ip), vehicle: Klucel (hydroxypropylcellulose) (HPC)): 2 of 6

COc1cccc(O)c1/C=C/[N+](=O)[O-]
survivor count (dose: 200.0 mg/kg/injection, schedule: Q01DX009 (ip), vehicle: Klucel (hydroxypropylcellulose) (HPC)): 5 of 6

CC1(C)N=C(N)N=C(N)N1c1cccc(OCCOc2ccc(NC(=O)CBr)cc2)c1
T/C (dose: 100.0 mg/kg/injection, schedule: Q01DX009 (ip), vehicle: saline): 133 % of control | survivor count (dose: 300.0 mg/kg/injection, schedule: Q01DX009 (ip), vehicle: other): 1 of 6 | survivor count [1]: 1 of 6

O=C(Nc1ccc(C2=NCCN2)cc1)c1ccc(Cl)c(C(=O)Nc2ccc(C3=NCCN3)cc2)c1
survivor count (dose: 1.87 mg/kg/injection, schedule: Q01DX Z (ip), vehicle: water): 0 of 6 | survivor count (dose: 60.0 mg/kg/injection, schedule: Q01DX Z (ip), vehicle: saline): 0 of 6 | survivor count (dose: 120.0 mg/kg/injection, schedule: Q01DX Z (ip), vehicle: saline): 0 of 6 (2×)

CC(=O)c1ccc(NC(=O)N(CCCl)N=O)cc1
T/C (dose: 4.0 mg/kg/injection, schedule: Q01DX001 (ip), vehicle: carboxymethylcellulose (CMC)): 125 % of control | T/C (dose: 6.0 mg/kg/injection, schedule: Q01DX001 (ip), vehicle: carboxymethylcellulose (CMC)): 135 % of control | T/C (dose: 8.0 mg/kg/injection, schedule: Q01DX001 (ip), vehicle: carboxymethylcellulose (CMC)): 143 % of control | T/C (dose: 9.0 mg/kg/injection, schedule: Q01DX001 (ip), vehicle: carboxymethylcellulose (CMC)): 125 % of control | T/C (dose: 12.0 mg/kg/injection, schedule: Q01DX001 (ip), vehicle: carboxymethylcellulose (CMC)): 141 % of control | T/C (dose: 37.5 mg/kg/injection, schedule: Q01DX001 (ip), vehicle: carboxymethylcellulose (CMC)): 143 % of control | T/C (dose: 50.0 mg/kg/injection, schedule: Q01DX001 (ip), vehicle: carboxymethylcellulose (CMC)): 147 % of control | survivor count (dose: 350.0 mg/kg/injection, schedule: Q01DX001 (ip), vehicle: carboxymethylcellulose (CMC)): 4 of 6 | survivor count (dose: 400.0 mg/kg/injection, schedule: Q01DX001 (ip), vehicle: carboxymethylcellulose (CMC)): 4 of 6 | survivor count (dose: 500.0 mg/kg/injection, schedule: Q01DX001 (ip), vehicle: carboxymethylcellulose (CMC)): 2 of 6

CCCCC[P+](c1ccccc1)(c1ccccc1)c1ccccc1
survivor count [2]: 0 of 3 | survivor count [3]: 0 of 3 | survivor count [4]: 0 of 3

CC12CCC(c3sc(N)c(C#N)c31)C2(C)C (stereo not given)
survivor count [2]: 1 of 3 | survivor count [3]: 2 of 3 | survivor count [4]: 0 of 3

O=C1C(F)=C(N2CC2)C(=O)C(N2CCOCC2)=C1N1CC1
T/C (dose: 6.0 mg/kg/injection, schedule: Q01DX009 (ip), vehicle: saline): 129 % of control | survivor count (dose: 12.5 mg/kg/injection, schedule: Q04DX003 (ip), vehicle: saline): 1 of 6 and 3 of 6 | survivor count (dose: 25.0 mg/kg/injection, schedule: Q01DX001 (ip), vehicle: saline): 1 of 6 | survivor count (dose: 25.0 mg/kg/injection, schedule: Q04DX003 (ip), vehicle: saline): 0 of 6

CC(=O)[C@H]1CC[C@H]2[C@@H]3C[C@H](C)C4=CC(=O)CC[C@]4(C)[C@H]3[C@@H](O)C[C@]12C
survivor count [5]: 3 of 6

S=P(NC1CCCCC1)(N1CC1)N1CC1
T/C (dose: 10.0 mg/kg/injection, schedule: Q01DX Z (ip), vehicle: carboxymethylcellulose (CMC)): 141 % of control | survivor count (dose: 40.0 mg/kg/injection, schedule: Q01DX Z (ip), vehicle: carboxymethylcellulose (CMC)): 6 of 6

O=C1/C(=C/c2ccc([N+](=O)[O-])cc2)SC(=S)N1C1OC(CO)C(O)C(O)C1O (stereo not given)
survivor count (dose: 200.0 mg/kg/injection, schedule: Q01DX005 (ip), vehicle: water): 3 of 6 | survivor count (dose: 400.0 mg/kg/injection, schedule: Q01DX005 (ip), vehicle: water): 0 of 6

O=NN(CCCl)C(=O)Nc1ccc2oc(=O)c3ccccc3c2c1
T/C (dose: 10.0 mg/kg/injection, schedule: Q01DX001 (ip), vehicle: carboxymethylcellulose (CMC)): 126 % of control | T/C (dose: 20.0 mg/kg/injection, schedule: Q01DX001 (ip), vehicle: carboxymethylcellulose (CMC), evaluated on day 30): 148 % of control | T/C (dose: 20.0 mg/kg/injection, schedule: Q01DX001 (ip), vehicle: carboxymethylcellulose (CMC), run until all animals had died): 141 % of control | T/C (dose: 35.0 mg/kg/injection, schedule: Q01DX001 (ip), vehicle: carboxymethylcellulose (CMC)): 131 % of control | T/C (dose: 40.0 mg/kg/injection, schedule: Q01DX001 (ip), vehicle: carboxymethylcellulose (CMC)): 131 % of control | T/C (dose: 53.0 mg/kg/injection, schedule: Q01DX001 (ip), vehicle: carboxymethylcellulose (CMC)): 140 % of control | T/C (dose: 75.0 mg/kg/injection, schedule: Q01DX001 (ip), vehicle: carboxymethylcellulose (CMC)): 136 % of control | T/C (dose: 80.0 mg/kg/injection, schedule: Q01DX001 (ip), vehicle: carboxymethylcellulose (CMC)): 138 % of control | T/C (dose: 120.0 mg/kg/injection, schedule: Q01DX001 (ip), vehicle: carboxymethylcellulose (CMC)): 135 % of control | T/C (dose: 177.0 mg/kg/injection, schedule: Q01DX001 (ip), vehicle: carboxymethylcellulose (CMC), evaluated on day 30): 128 % of control | T/C (dose: 177.0 mg/kg/injection, schedule: Q01DX001 (ip), vehicle: carboxymethylcellulose (CMC), run until all animals had died): 144 % of control | T/C (dose: 266.0 mg/kg/injection, schedule: Q01DX001 (ip), vehicle: carboxymethylcellulose (CMC), evaluated on day 30): 134 % of control | T/C (dose: 266.0 mg/kg/injection, schedule: Q01DX001 (ip), vehicle: carboxymethylcellulose (CMC), run until all animals had died): 148 % of control | T/C (dose: 400.0 mg/kg/injection, schedule: Q01DX001 (ip), vehicle: carboxymethylcellulose (CMC), evaluated on day 30): 126 % of control | T/C (dose: 400.0 mg/kg/injection, schedule: Q01DX001 (ip), vehicle: carboxymethylcellulose (CMC), run until all animals had died): 143 % of control | T/C (dose: 600.0 mg/kg/injection, schedule: Q01DX001 (ip), vehicle: carboxymethylcellulose (CMC)): 148 % of control

CN(C)c1ccc(/C(=N\O)C(=O)O)cc1
survivor count [5]: 0 of 4

CC1CN1C(=O)OCCOC(=O)N1CC1C (stereo not given)
T/C (dose: 300.0 mg/kg/injection, schedule: Q01DX Z (ip), vehicle: saline): 136 % of control | T/C (dose: 500.0 mg/kg/injection, schedule: Q01DX001 (ip), vehicle: saline): 127 % of control

CC1(c2ccc3ccccc3c2)OCC2(CCCCC2)CO1
T/C [3]: 140 % of control

NC(Cc1ccccc1)c1nn[nH]n1 (stereo not given)
survivor count (dose: 125.0 mg/kg/injection, schedule: Q01DX Z (ip), vehicle: methylcellulose (MC)): 1 of 6

C=CC[N+](C)(CC=C)CC[N+](C)(CC=C)CC=C
survivor count (dose: 200.0 mg/kg/injection, schedule: Q01DX009 (ip), vehicle: water): 2 of 6 | survivor count (dose: 400.0 mg/kg/injection, schedule: Q04DX003 (ip), vehicle: water): 1 of 6

Cc1ccc(S(=O)(=O)OC2C(O)C(CO)OC2n2c(Br)c(C(N)=O)c3c(N)ncnc32)cc1 (stereo not given)
survivor count (dose: 400.0 mg/kg/injection, schedule: Q01DX009 (ip), vehicle: water): 5 of 5

CS(=O)(=O)Oc1c(Cl)cc(S(=O)(=O)F)cc1Cl
survivor count (dose: 400.0 mg/kg/injection, schedule: Q01DX009 (ip), vehicle: Klucel (hydroxypropylcellulose) (HPC)): 4 of 6
